Assay results as given in patent publication US20260035475A1.
These are yes or no findings as the source states them, for the method shown. Some results given as binding are weak or reduced against the parent protein; the word gives no strength.

Experiments:
[1] = biological target: cynomolgus TfR1 (cTfR1), recombinant, construct not stated (cynomolgus); assay: BLI: cTfR1 captured on biotinylated human holo-transferrin on streptavidin sensors, 15 nM Fab in solution
[2] = biological target: human transferrin receptor 1 (hTfR1), recombinant, construct not stated (human) (UniProt P02786); assay: BLI: hTfR1 captured on biotinylated human holo-transferrin on streptavidin sensors, 15 nM Fab in solution
[3] = biological target: human transferrin receptor 1 (hTfR1), recombinant, construct not stated (human) (UniProt P02786); assay: BLI, 15 nM Fab on TfR1 captured by biotinylated holo-transferrin
[4] = biological target: cynomolgus TfR1 (cTfR1), recombinant, construct not stated (cynomolgus); assay: as above
[5] = biological target: hTfR1 with an N-terminal DYKDDDDK tag (Example 15) (human) (UniProt P02786); assay: SPR Biacore 8K, hTfR1 captured via N-terminal DYKDDDDK tag, scFv analyte (FIG. 26)
[6] = biological target: hTfR1 with an N-terminal DYKDDDDK tag (Example 15) (human) (UniProt P02786); assay: SPR (Biacore 8K), single-cycle kinetics: hTfR1 captured by its DYKDDDDK tag on an anti-tag antibody, scFv in five 3-fold steps up to 700 or 400 nM
[7] = biological target: cynomolgus TfR1 (cTfR1), recombinant, construct not stated (cynomolgus); assay: BLI (Octet): IgG captured from crude hybridoma supernatant on anti-mouse capture sensors, 250 nM cTfR1 in solution
[8] = biological target: chimeric TfR1 consisting of human apical domain grafted on mouse TfR1 ectodomain (SEQ ID NO:76) (human/mouse chimera); assay: condition: about 650 ng/ml (last point, between 100 and 1000 on the log axis); indirect ELISA on coated h/m apical domain chimera; x axis printed 'TfR (ng/ml)' [C]
[9] = biological target: cynomolgus TfR1 (cTfR1), recombinant, construct not stated (cynomolgus); assay: BLI, IgG captured from hybridoma supernatant, 250 nM cTfR1 in solution
[10] = biological target: mouse TfR1 (mTfR1), recombinant, construct not stated (mouse) (UniProt Q62351); assay: BLI (Octet): IgG captured from crude hybridoma supernatant on anti-mouse capture sensors, 500 nM mTfR1 in solution
[11] = biological target: chimeric TfR1 consisting of human apical domain grafted on mouse TfR1 ectodomain (SEQ ID NO:76) (human/mouse chimera); assay: ELISA, coated His-tagged antigen, mouse IgG dilution series
[12] = biological target: mouse TfR1 (mTfR1), recombinant, construct not stated (mouse) (UniProt Q62351); assay: BLI, IgG captured from hybridoma supernatant, 500 nM mTfR1 in solution
[13] = biological target: cynomolgus TfR1 (cTfR1), recombinant, construct not stated (cynomolgus); assay: ELISA, hybridoma supernatant
[14] = biological target: mouse TfR1 (mTfR1), recombinant, construct not stated (mouse) (UniProt Q62351); assay: BLI, IgG captured from hybridoma supernatant, TfR1 in solution
[15] = biological target: cynomolgus TfR1 (cTfR1), recombinant, construct not stated (cynomolgus); assay: as above
[16] = biological target: cynomolgus TfR1 (cTfR1), recombinant, construct not stated (cynomolgus); assay: indirect ELISA on coated cTfR1 (coat not described in the text), Fab 1:3 dilutions [upper right]

B1: 24B4-Fab (Fab, V domains shown)
VH: EVQLQQFGAELVKPGTSVKISCKASGYTFTDYNMDWVKQGHGKGLEWIGDINPNYDTTSYSQKFKGKATLTVDKSSSTAYMELRSLTSEDTAVYYCARSEAGNYYWYFDVWGAGTTVTVSS
VL: DIVMSQSPSSLAVSVGEKVTMSCKSSQSLLYSSNRKNYLAWYRQKPGQSPKLLIYWASTRESGVPDRFTGSGSGTDFTLTISSVKAEDLAVYSCQQYYNYPYTFGGGTKLEIK
binding [1]: binds
binding [2]: binds
binding [3]: binds
binding [4]: binds

B2: h26D3-HC6 scFv (scFv)
scFv: EVQLVQSGAEVKKPGSSVKVSCKASGYIFTDYNMDWVRQAPGQGLEWIGDINPDADTTSYNEKFKGRATLTVDKSTSTAYMELSSLRSEDTAVYYCARGGYSGSSYYHPMDYWGQGTLVTVSSGGGGSGGGGSGGGGSDIQMTQSPSSVSASVGDRVTITCKSSQSLLYSTNQKNYLAWYQQKPGKAPKLLIYWASTRESGVPSRFSGSGSGTDFTLTISSLQPEDFATYYCQQYFIYPRTFGQGTKVEIK
binding [5]: binds
binding [6]: binds

B3: h26D3-HC6, VL-first scFv (scFv)
scFv: DIQMTQSPSSVSASVGDRVTITCKSSQSLLYSTNQKNYLAWYQQKPGKAPKLLIYWASTRESGVPSRFSGSGSGTDFTLTISSLQPEDFATYYCQQYFIYPRTFGQGTKVEIKGGGGSGGGGSGGGGSEVQLVQSGAEVKKPGSSVKVSCKASGYIFTDYNMDWVRQAPGQGLEWIGDINPDADTTSYNEKFKGRATLTVDKSTSTAYMELSSLRSEDTAVYYCARGGYSGSSYYHPMDYWGQGTLVTVSS
binding [5]: binds
binding [6]: binds

B4: h26D3-LC1 scFv (scFv)
scFv: EVQLVQSGAEVKKPGSSVKVSCKASGYIFTDYNMDWVRQAPGQGLEWIGDINPDYDTTSYNEKFKGRATLTVDKSTSTAYMELSSLRSEDTAVYYCARGGYSGSSYYHPMDYWGQGTLVTVSSGGGGSGGGGSGGGGSDIQMTQSPSSVSASVGDRVTITCKSSQSLLASTNQKNYLAWYQQKPGKAPKLLIYWASTRESGVPSRFSGSGSGTDFTLTISSLQPEDFATYYCQQYFIYPRTFGQGTKVEIK
binding [5]: binds
binding [6]: binds

B5: h26D3-HC6_DS scFv (scFv)
scFv: EVQLVQSGAEVKKPGSSVKVSCKASGYIFTDYNMDWVRQAPGQCLEWIGDINPDADTTSYNEKFKGRATLTVDKSTSTAYMELSSLRSEDTAVYYCARGGYSGSSYYHPMDYWGQGTLVTVSSGGGGSGGGGSGGGGSDIQMTQSPSSVSASVGDRVTITCKSSQSLLYSTNQKNYLAWYQQKPGKAPKLLIYWASTRESGVPSRFSGSGSGTDFTLTISSLQPEDFATYYCQQYFIYPRTFGCGTKVEIK
binding [5]: binds
binding [6]: binds

B6: h26D3-HC6_DS, VL-first scFv (scFv)
scFv: DIQMTQSPSSVSASVGDRVTITCKSSQSLLYSTNQKNYLAWYQQKPGKAPKLLIYWASTRESGVPSRFSGSGSGTDFTLTISSLQPEDFATYYCQQYFIYPRTFGCGTKVEIKGGGGSGGGGSGGGGSGGGGSEVQLVQSGAEVKKPGSSVKVSCKASGYIFTDYNMDWVRQAPGQCLEWIGDINPDADTTSYNEKFKGRATLTVDKSTSTAYMELSSLRSEDTAVYYCARGGYSGSSYYHPMDYWGQGTLVTVSS
binding [5]: binds
binding [6]: binds

B7: h26D3-LC1_DS, VL-first scFv (scFv)
scFv: DIQMTQSPSSVSASVGDRVTITCKSSQSLLASTNQKNYLAWYQQKPGKAPKLLIYWASTRESGVPSRFSGSGSGTDFTLTISSLQPEDFATYYCQQYFIYPRTFGCGTKVEIKGGGGSGGGGSGGGGSGGGGSEVQLVQSGAEVKKPGSSVKVSCKASGYIFTDYNMDWVRQAPGQCLEWIGDINPDYDTTSYNEKFKGRATLTVDKSTSTAYMELSSLRSEDTAVYYCARGGYSGSSYYHPMDYWGQGTLVTVSS
binding [5]: binds
binding [6]: binds

B8: 26D3-Fab (murine) (Fab, V domains shown)
VH: EVQLQQFGVELVKPGASVKISCKASGYIFTDYNMDWVKQSHGKSLEWIGDINPDYDTTSYNEKFKGKATLTVDKSSSTAYMELRSLTSEDTAVYYCARGGYSGSSYYHPMDYWGQGTSVTVSS
VL: DIVMSQSPSSLAVSVGEKITMSCKSSQSLLYSTNQKNYLAWYQQKPGQSPELLIYWASTRESGVPDRFTGSGSGTDFTLTISNVRAEDLAVYYCQQYFIYPRTFGGGTKLEIK
binding [1]: binds
binding [4]: binds

B9: 37D10-Fab (Fab, V domains shown)
VH: QVQLQQSGAELVRPGTSVKISCKASGYAFTNYWLGWVKQRPGHGLEWIGDIFPGSDNTYYNEKFKGKATLTADKSSSTAYMQLSSLASEDSAVYFCARSGNFYAMDYWGQGTSVTVSS
VL: ENVLTQSPAIMSASPGEKVTMTCSASSSVNYMNWYQQKSSTFPKLWIYDTSKLASGVPGRFSGSGSGKFYSLTISSMEAEDVATYYCFQGSGYPFTFGSGTKLEIK
binding [1]: binds
binding [2]: binds
binding [3]: binds
binding [4]: binds

B10: 26D3 (mouse monoclonal antibody) (antibody, V domains shown)
VH: EVQLQQFGVELVKPGASVKISCKASGYIFTDYNMDWVKQSHGKSLEWIGDINPDYDTTSYNEKFKGKATLTVDKSSSTAYMELRSLTSEDTAVYYCARGGYSGSSYYHPMDYWGQGTSVTVSS
VL: DIVMSQSPSSLAVSVGEKITMSCKSSQSLLYSTNQKNYLAWYQQKPGQSPELLIYWASTRESGVPDRFTGSGSGTDFTLTISNVRAEDLAVYYCQQYFIYPRTFGGGTKLEIK
binding [7]: binds
binding [8]: no binding
binding [9]: binds
binding [10]: binds
binding [11]: no binding
binding [12]: binds
binding [13]: binds
binding [14]: binds
binding [15]: binds

B11: h26D3 variant LC1 Fab (VL Y31A) (Fab, V domains shown)
VH: EVQLVQSGAEVKKPGSSVKVSCKASGYIFTDYNMDWVRQAPGQGLEWIGDINPDYDTTSYNEKFKGRATLTVDKSTSTAYMELSSLRSEDTAVYYCARGGYSGSSYYHPMDYWGQGTLVTVSS
VL: DIQMTQSPSSVSASVGDRVTITCKSSQSLLASTNQKNYLAWYQQKPGKAPKLLIYWASTRESGVPSRFSGSGSGTDFTLTISSLQPEDFATYYCQQYFIYPRTFGQGTKVEIK
binding [16]: binds

B12: h26D3 variant HC6 Fab (VH Y55A) (Fab, V domains shown)
VH: EVQLVQSGAEVKKPGSSVKVSCKASGYIFTDYNMDWVRQAPGQGLEWIGDINPDADTTSYNEKFKGRATLTVDKSTSTAYMELSSLRSEDTAVYYCARGGYSGSSYYHPMDYWGQGTLVTVSS
VL: DIQMTQSPSSVSASVGDRVTITCKSSQSLLYSTNQKNYLAWYQQKPGKAPKLLIYWASTRESGVPSRFSGSGSGTDFTLTISSLQPEDFATYYCQQYFIYPRTFGQGTKVEIK
binding [16]: binds

B13: h26D3 variant LC5 Fab (VL Y97A) (Fab, V domains shown)
VH: EVQLVQSGAEVKKPGSSVKVSCKASGYIFTDYNMDWVRQAPGQGLEWIGDINPDYDTTSYNEKFKGRATLTVDKSTSTAYMELSSLRSEDTAVYYCARGGYSGSSYYHPMDYWGQGTLVTVSS
VL: DIQMTQSPSSVSASVGDRVTITCKSSQSLLYSTNQKNYLAWYQQKPGKAPKLLIYWASTRESGVPSRFSGSGSGTDFTLTISSLQPEDFATYYCQQAFIYPRTFGQGTKVEIK
binding [16]: binds

B14: h26D3 variant HC3 Fab (VH D35A) (Fab, V domains shown)
VH: EVQLVQSGAEVKKPGSSVKVSCKASGYIFTDYNMAWVRQAPGQGLEWIGDINPDYDTTSYNEKFKGRATLTVDKSTSTAYMELSSLRSEDTAVYYCARGGYSGSSYYHPMDYWGQGTLVTVSS
VL: DIQMTQSPSSVSASVGDRVTITCKSSQSLLYSTNQKNYLAWYQQKPGKAPKLLIYWASTRESGVPSRFSGSGSGTDFTLTISSLQPEDFATYYCQQYFIYPRTFGQGTKVEIK
binding [16]: binds

B15: h26D3-HC6/LC5 (Fab, V domains shown)
VH: EVQLVQSGAEVKKPGSSVKVSCKASGYIFTDYNMDWVRQAPGQGLEWIGDINPDADTTSYNEKFKGRATLTVDKSTSTAYMELSSLRSEDTAVYYCARGGYSGSSYYHPMDYWGQGTLVTVSS
VL: DIQMTQSPSSVSASVGDRVTITCKSSQSLLYSTNQKNYLAWYQQKPGKAPKLLIYWASTRESGVPSRFSGSGSGTDFTLTISSLQPEDFATYYCQQAFIYPRTFGQGTKVEIK
binding [16]: binds
